Experimental data from patent US6750219B1, “Ω-amino-α-hydroxycarboxylic acid derivatives having integrin ανβ3 antagonistic activity” (Meiji Seika Kaisha, Ltd., priority 1999, dated 2004).
For at least one compound, name, drawing or mass did not settle the structure.

Test system: human platelet aggregation
Experiment: Human platelet aggregation inhibitory activity (Pharmacological Test 1 in WO 94/21599)
Type: cell-based
Conditions: human platelets

SMILES	human platelet aggregation inhibitory activity
O=C(NC[C@H](O)C(=O)O)c1ccc(N2CCC(NC3=NCCCN3)CC2)cc1 [Example 6, (2S)-Hydroxy-3-[4-{4-(1,4,5,6-tetrahydropyrimidin-2-ylamino)piperidin-1-yl}benzoylamino]-propionic acid]	inhibited human platelet aggregation
O=C(NC[C@H](O)C(=O)O)c1ccc(N2CCC(NC3=NCCCN3)CC2)c(F)c1 [Example 14, 3-[3-Fluoro-4-{4-(1,4,5,6-tetrahydropyrimidin-2-ylamino)piperidin-1-yl}benzoylamino]-(2S)-hydroxypropionic acid]	inhibited human platelet aggregation
